± gives the standard deviation of the averaged measurements. The entries are a selection whose mix differs from that of the whole data set.
Compound: Nc1ncnc2c1ncn2[C@@H]1O[C@H](COP(=O)(O)OP(=O)(O)NP(=O)(O)O)[C@@H](O)[C@H]1O [adenylyl imidodiphosphate]
Assay: NP40-soluble protein abundance relative to vehicle (solubility fold change) (ratio); higher = more soluble protein in presence of AMP-PNP
Procedure, shortened: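 Each value is a fold change relative to the detergent-processed vehicle, calculated per replicate from vsn-normalised intensities. Jurkat crude lysate received eight concentrations (0.1 to 10 mM) for 10 min at room temperature and 3 min at 37 °C, then was solubilised in 0.8% NP40 with benzonase (60 min, 4 °C). The ultracentrifuged supernatant was TMT-labelled and run by LC-MS/MS in three independent experiments.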

Amino acid sequences for entries named in this document (tags omitted). A change or cut given only in a name is not applied to a line headed by its entry.
UniProt Q15554: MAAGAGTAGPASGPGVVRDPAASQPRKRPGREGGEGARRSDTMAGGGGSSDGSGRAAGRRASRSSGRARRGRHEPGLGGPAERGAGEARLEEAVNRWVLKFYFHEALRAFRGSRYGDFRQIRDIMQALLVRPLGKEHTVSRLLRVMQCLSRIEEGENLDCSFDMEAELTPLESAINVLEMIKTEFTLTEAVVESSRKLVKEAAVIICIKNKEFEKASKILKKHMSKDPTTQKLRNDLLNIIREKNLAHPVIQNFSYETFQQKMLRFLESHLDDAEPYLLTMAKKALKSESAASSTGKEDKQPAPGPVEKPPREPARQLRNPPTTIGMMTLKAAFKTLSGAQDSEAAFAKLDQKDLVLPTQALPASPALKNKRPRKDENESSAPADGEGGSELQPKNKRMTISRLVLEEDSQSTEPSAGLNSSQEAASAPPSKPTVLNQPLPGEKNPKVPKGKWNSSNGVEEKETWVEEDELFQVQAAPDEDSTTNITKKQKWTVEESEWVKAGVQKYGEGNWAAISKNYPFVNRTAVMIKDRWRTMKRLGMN
UniProt Q56NI9: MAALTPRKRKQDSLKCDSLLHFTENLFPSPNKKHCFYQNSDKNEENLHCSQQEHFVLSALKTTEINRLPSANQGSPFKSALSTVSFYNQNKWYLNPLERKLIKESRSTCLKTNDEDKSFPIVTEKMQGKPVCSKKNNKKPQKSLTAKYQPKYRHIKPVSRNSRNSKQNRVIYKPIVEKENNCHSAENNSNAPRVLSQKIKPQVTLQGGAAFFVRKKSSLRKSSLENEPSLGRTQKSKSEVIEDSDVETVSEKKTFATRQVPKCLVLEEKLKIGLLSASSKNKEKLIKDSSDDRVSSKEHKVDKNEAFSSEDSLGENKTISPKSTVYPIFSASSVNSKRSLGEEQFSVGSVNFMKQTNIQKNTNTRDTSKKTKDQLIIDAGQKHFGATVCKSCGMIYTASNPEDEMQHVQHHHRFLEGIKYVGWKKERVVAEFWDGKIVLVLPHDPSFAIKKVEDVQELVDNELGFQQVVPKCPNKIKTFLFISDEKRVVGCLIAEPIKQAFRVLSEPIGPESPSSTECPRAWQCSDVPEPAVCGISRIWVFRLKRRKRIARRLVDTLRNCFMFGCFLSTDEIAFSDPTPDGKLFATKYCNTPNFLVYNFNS
UniProt Q32MZ4: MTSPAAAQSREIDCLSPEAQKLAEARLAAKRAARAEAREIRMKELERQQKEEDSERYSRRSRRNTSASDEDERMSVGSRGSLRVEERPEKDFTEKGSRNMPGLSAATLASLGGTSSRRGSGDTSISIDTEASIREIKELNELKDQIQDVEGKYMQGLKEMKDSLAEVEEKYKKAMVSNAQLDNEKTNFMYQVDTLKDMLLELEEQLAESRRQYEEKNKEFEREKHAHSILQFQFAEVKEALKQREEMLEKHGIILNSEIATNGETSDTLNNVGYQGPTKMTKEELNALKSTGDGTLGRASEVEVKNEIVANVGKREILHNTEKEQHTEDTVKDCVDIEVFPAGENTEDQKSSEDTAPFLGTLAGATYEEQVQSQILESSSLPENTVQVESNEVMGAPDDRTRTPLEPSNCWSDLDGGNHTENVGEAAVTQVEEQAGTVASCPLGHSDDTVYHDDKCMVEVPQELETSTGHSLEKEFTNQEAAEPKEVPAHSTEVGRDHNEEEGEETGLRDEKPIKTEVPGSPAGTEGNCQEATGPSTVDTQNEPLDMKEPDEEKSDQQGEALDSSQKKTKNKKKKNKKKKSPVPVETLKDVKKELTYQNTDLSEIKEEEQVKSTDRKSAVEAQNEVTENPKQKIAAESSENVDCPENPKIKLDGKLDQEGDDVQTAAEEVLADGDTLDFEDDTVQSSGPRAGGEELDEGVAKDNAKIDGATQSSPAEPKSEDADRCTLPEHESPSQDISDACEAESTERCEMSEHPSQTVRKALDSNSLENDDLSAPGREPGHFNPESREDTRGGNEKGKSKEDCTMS
UniProt Q16643: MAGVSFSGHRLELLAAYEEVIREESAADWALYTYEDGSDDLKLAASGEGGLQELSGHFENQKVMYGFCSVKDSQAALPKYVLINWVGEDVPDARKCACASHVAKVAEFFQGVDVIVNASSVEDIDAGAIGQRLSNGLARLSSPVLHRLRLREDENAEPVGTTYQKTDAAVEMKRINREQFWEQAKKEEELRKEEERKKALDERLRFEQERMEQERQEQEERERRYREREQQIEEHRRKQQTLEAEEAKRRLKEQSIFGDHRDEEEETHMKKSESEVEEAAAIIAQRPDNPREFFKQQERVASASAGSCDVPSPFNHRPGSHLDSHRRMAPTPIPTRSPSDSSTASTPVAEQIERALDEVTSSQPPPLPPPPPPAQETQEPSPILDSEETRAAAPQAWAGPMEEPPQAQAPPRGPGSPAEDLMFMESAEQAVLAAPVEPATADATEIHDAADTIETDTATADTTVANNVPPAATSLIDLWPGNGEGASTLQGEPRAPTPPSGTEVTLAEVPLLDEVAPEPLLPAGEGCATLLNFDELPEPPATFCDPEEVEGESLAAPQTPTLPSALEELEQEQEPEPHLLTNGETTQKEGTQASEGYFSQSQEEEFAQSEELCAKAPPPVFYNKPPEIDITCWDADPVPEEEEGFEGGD
UniProt Q5U5Q3: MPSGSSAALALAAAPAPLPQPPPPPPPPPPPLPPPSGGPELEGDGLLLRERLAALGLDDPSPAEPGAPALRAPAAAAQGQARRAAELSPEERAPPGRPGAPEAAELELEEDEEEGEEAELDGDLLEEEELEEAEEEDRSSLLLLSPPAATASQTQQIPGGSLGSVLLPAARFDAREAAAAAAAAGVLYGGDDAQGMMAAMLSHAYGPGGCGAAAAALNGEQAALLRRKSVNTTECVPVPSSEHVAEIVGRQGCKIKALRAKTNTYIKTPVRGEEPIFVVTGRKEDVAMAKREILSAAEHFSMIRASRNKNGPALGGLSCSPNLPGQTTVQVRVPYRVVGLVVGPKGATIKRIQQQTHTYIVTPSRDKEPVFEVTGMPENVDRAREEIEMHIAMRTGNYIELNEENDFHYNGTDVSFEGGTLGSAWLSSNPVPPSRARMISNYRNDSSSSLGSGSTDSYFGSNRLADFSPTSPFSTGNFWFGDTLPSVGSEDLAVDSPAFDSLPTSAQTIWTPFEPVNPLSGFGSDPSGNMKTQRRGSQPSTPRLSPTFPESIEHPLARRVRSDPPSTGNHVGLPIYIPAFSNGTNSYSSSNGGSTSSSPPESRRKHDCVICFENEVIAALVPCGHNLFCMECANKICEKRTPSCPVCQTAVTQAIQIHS
UniProt Q15286: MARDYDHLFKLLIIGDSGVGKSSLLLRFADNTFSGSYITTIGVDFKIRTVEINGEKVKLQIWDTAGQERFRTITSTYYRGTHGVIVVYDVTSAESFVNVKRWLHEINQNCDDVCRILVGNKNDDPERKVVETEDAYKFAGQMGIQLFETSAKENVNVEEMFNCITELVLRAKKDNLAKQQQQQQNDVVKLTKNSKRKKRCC
UniProt Q15714: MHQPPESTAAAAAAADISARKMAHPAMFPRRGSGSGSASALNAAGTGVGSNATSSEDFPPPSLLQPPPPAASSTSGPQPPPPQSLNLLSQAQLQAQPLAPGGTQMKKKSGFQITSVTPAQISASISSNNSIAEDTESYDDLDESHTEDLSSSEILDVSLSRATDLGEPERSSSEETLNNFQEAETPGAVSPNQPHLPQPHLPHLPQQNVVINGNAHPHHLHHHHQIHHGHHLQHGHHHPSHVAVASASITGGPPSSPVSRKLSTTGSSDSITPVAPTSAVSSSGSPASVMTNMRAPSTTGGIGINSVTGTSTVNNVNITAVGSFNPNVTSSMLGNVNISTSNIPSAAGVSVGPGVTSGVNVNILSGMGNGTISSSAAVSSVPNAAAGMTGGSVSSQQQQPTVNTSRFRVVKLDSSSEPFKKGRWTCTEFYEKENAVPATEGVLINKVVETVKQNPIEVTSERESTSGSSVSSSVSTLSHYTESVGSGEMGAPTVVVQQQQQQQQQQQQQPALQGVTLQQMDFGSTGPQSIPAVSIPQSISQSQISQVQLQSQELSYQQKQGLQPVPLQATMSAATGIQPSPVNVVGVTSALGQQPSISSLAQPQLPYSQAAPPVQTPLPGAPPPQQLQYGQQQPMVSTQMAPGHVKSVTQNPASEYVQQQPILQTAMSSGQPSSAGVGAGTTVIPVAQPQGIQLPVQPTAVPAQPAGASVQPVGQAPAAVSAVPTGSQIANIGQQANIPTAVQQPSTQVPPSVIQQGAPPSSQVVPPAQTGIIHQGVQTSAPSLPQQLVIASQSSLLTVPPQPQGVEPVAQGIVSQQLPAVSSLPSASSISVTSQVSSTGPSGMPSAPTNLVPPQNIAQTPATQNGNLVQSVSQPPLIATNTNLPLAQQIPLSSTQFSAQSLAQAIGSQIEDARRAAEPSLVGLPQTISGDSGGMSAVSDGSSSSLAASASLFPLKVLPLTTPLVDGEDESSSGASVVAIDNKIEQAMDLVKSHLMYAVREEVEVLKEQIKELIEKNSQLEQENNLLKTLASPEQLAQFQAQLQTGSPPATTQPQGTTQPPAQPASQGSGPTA
UniProt Q2TAL8: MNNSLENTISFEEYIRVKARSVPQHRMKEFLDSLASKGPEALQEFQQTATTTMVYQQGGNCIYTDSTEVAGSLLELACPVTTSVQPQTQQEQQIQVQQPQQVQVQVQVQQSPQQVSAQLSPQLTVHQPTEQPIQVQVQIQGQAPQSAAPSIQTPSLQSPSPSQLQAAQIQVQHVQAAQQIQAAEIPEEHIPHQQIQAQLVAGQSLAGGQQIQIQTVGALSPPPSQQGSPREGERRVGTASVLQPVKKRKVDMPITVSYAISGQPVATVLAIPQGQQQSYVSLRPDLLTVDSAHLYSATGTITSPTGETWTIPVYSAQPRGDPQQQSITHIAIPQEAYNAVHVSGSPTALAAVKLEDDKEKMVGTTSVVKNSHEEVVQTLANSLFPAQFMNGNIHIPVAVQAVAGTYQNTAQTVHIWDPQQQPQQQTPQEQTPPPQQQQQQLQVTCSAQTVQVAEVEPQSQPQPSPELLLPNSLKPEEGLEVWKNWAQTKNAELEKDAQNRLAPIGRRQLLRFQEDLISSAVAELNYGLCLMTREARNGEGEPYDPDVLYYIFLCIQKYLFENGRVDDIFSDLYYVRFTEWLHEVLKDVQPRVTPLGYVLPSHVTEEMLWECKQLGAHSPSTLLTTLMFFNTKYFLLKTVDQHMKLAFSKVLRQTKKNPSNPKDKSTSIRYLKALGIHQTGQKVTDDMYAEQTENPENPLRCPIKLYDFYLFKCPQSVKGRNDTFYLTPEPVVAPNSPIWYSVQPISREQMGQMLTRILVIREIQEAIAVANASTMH
UniProt Q5JTV8: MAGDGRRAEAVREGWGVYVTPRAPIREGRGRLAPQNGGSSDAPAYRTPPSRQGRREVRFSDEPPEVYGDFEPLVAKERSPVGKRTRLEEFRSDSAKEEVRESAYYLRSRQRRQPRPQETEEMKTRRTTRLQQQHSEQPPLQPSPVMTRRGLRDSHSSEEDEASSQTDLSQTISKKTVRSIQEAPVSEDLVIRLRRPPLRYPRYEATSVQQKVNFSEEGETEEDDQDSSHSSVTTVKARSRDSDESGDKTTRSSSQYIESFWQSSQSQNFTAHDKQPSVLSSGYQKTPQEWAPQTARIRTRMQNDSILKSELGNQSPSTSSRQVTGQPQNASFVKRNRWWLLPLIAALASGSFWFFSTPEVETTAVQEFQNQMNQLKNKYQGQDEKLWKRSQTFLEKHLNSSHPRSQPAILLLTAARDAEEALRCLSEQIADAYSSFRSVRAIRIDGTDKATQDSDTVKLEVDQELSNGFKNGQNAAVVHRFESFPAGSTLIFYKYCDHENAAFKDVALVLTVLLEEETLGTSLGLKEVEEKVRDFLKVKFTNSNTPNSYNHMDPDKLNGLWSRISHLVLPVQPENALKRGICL
UniProt Q15750: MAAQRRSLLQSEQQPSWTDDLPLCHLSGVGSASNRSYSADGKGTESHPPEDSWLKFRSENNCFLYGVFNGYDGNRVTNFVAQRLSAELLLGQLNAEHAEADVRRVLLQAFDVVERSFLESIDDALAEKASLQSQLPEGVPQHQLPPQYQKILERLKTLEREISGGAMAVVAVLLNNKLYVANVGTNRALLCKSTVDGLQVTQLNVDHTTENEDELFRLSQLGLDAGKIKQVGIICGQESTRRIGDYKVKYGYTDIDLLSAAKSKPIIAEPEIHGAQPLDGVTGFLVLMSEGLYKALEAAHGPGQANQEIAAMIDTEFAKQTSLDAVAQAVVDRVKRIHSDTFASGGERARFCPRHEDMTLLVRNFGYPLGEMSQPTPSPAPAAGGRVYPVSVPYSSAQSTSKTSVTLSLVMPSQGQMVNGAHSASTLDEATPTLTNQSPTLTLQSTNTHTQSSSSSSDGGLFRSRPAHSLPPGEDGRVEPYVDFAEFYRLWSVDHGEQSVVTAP
UniProt Q3MHD2: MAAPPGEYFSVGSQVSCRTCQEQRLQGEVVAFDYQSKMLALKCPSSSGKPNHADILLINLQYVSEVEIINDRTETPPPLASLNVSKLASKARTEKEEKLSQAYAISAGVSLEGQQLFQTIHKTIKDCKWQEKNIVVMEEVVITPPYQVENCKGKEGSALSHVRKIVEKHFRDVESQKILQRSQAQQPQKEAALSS

Target	NP40-soluble protein abundance (concentration: 1mM)	NP40-soluble protein abundance (concentration: 2mM)	NP40-soluble protein abundance (concentration: 4mM)	NP40-soluble protein abundance (concentration: 6mM)	NP40-soluble protein abundance (concentration: 8mM)	NP40-soluble protein abundance (concentration: 10mM)
TERF2 (UniProt Q15554)	1.046 ± 0.0077	1.1 ± 0.058	1.09 ± 0.051	1.15 ± 0.045	1.14 ± 0.031	1.21 ± 0.046
TRMT5 (UniProt Q32P41)	0.928 ± 0.014	0.857 ± 0.063	0.894 ± 0.046	0.9421 ± 0.0066	0.935 ± 0.029	0.891 ± 0.044
UBAP2 (UniProt Q5T6F2)	1.06 ± 0.022	1.1 ± 0.096	1.07 ± 0.038	1.04 ± 0.033	1.01 ± 0.021	1.05 ± 0.045
UniProt Q15669	1.02 ± 0.0095	0.976 ± 0.068	0.983 ± 0.01	0.962 ± 0.02	0.959 ± 0.018	0.951 ± 0.014
UniProt Q16513 and related entries	0.995 ± 0.028	1.07 ± 0.044	1.07 ± 0.093	1 ± 0.065	0.988 ± 0.047	0.984 ± 0.063
UniProt Q27J81 and related entries	1.015 ± 0.0078	1.05 ± 0.022	1.03 ± 0.016	0.9949 ± 0.0027	0.985 ± 0.011	1.03 ± 0.068
UniProt Q15329 and related entries	0.974 ± 0.018	1.02 ± 0.056	0.962 ± 0.016	0.997 ± 0.043	0.971 ± 0.03	0.966 ± 0.027
NSDHL (UniProt Q15738)	0.968 ± 0.04	0.892 ± 0.058	0.93 ± 0.022	0.953 ± 0.045	0.964 ± 0.036	0.923 ± 0.028
UniProt Q504Q3 and related entries	0.993 ± 0.044	0.99 ± 0.045	1 ± 0.022	0.981 ± 0.02	0.9797 ± 0.0095	0.984 ± 0.025
UniProt Q4LE39 and related entries	1.02 ± 0.064	1.069 ± 0.0038	0.996 ± 0.049	1.01 ± 0.078	0.988 ± 0.072	1.03 ± 0.072
UniProt Q15642-2|Q15642-3|Q15642-4|W4VSQ9 and related entries	1.09 ± 0.014	1.07 ± 0.036	1.07 ± 0.014	1.04 ± 0.054	1.07 ± 0.025	1.06 ± 0.065
HNRNPUL2 (UniProt Q1KMD3)	0.976 ± 0.1	0.971 ± 0.07	0.939 ± 0.13	0.933 ± 0.16	0.914 ± 0.13	0.935 ± 0.18
AMOT (UniProt Q4VCS5)	1.01 ± 0.037	1.05 ± 0.072	1.03 ± 0.037	1.02 ± 0.03	0.991 ± 0.025	1.03 ± 0.036
Q5STZ8 and related entries (UniProt Q8NE71)	1 ± 0.017	1.01 ± 0.014	1.08 ± 0.022	1.12 ± 0.049	1.13 ± 0.041	1.18 ± 0.017
UniProt Q4VC05 and related entries	1.03 ± 0.047	1.07 ± 0.073	0.992 ± 0.023	1.02 ± 0.026	0.997 ± 0.015	1.01 ± 0.027
TRADD (UniProt Q15628)	0.967 ± 0.037	0.925 ± 0.048	0.955 ± 0.059	0.949 ± 0.021	0.9347 ± 0.0022	0.904 ± 0.013
ESCO2 (UniProt Q56NI9)	1.005 ± 0.0049	1.02 ± 0.02	1.02 ± 0.021	1.02 ± 0.014	1.03 ± 0.044	1 ± 0.031
UniProt Q5JSP0 and related entries	1.04 ± 0.022	1.06 ± 0.051	1.07 ± 0.029	1.02 ± 0.027	1.03 ± 0.017	1.046 ± 0.004
UniProt Q32MZ4 and related entries	1 ± 0.017	1.07 ± 0.059	0.987 ± 0.02	0.961 ± 0.025	0.9253 ± 0.0066	0.939 ± 0.027
UniProt Q5JSZ5	1.05 ± 0.052	1.09 ± 0.035	1.09 ± 0.04	1.07 ± 0.07	1.07 ± 0.085	1.15 ± 0.059

Target	NP40-soluble protein abundance (concentration: 1mM)	NP40-soluble protein abundance (concentration: 2mM)	NP40-soluble protein abundance (concentration: 4mM)	NP40-soluble protein abundance (concentration: 6mM)	NP40-soluble protein abundance (concentration: 8mM)	NP40-soluble protein abundance (concentration: 10mM)
MANEA (UniProt Q5SRI9)	0.978 ± 0.034	0.9613 ± 0.0022	0.949 ± 0.022	0.964 ± 0.02	0.942 ± 0.039	0.945 ± 0.027
UniProt Q16643 and related entries	1.21 ± 0.09	1.24 ± 0.17	1.19 ± 0.13	1.18 ± 0.11	1.16 ± 0.094	1.26 ± 0.099
UniProt Q5HYK3 and related entries	0.968 ± 0.052	0.964 ± 0.041	0.983 ± 0.085	0.96 ± 0.058	0.97 ± 0.038	0.971 ± 0.069
STXBP2 (UniProt Q15833)	0.956 ± 0.023	0.934 ± 0.013	0.951 ± 0.014	0.946 ± 0.024	0.952 ± 0.04	0.933 ± 0.02
HSDL1 (UniProt Q3SXM5)	0.911 ± 0.053	0.85 ± 0.04	0.925 ± 0.034	0.912 ± 0.047	0.951 ± 0.028	0.856 ± 0.031
UniProt Q5T0N5-4	1.02 ± 0.03	1.04 ± 0.027	1.007 ± 0.0026	0.994 ± 0.019	0.959 ± 0.0097	0.997 ± 0.036
MEX3C (UniProt Q5U5Q3)	0.979 ± 0.035	0.982 ± 0.032	0.976 ± 0.021	0.9737 ± 0.0065	0.9791 ± 0.0055	0.98706 ± 0.00045
TOMM34 (UniProt Q15785)	1.01 ± 0.035	1.06 ± 0.071	1 ± 0.017	1.029 ± 0.006	1.02 ± 0.016	1.05 ± 0.025
UniProt Q53GL0	1.05 ± 0.042	1.13 ± 0.035	1.06 ± 0.013	1.05 ± 0.036	1.03 ± 0.019	1.07 ± 0.013
UniProt Q15286	0.958 ± 0.041	0.962 ± 0.037	0.974 ± 0.022	1 ± 0.043	1 ± 0.031	0.992 ± 0.028
OCIAD2 (UniProt Q56VL3)	0.979 ± 0.037	1.04 ± 0.081	1 ± 0.027	1.03 ± 0.076	1.01 ± 0.028	1.063 ± 0.009
UniProt Q5JPI3-2|E9PFZ1 and related entries	1.01 ± 0.058	0.995 ± 0.053	0.994 ± 0.039	0.963 ± 0.051	0.963 ± 0.037	0.957 ± 0.023
PDS5A (UniProt Q29RF7)	1.005 ± 0.01	0.9981 ± 0.0058	0.998 ± 0.012	0.99111 ± 0.00078	0.979 ± 0.022	0.98 ± 0.016
UniProt Q5PSV4 and related entries	1.06 ± 0.023	1 ± 0.013	0.978 ± 0.036	0.9781 ± 0.008	0.9869 ± 0.0096	0.9788 ± 0.0045
SF3A2 (UniProt Q15428)	0.972 ± 0.023	1.05 ± 0.058	1.02 ± 0.036	1.08 ± 0.02	1.09 ± 0.018	1.11 ± 0.047
TSC22D1 (UniProt Q15714)	0.981 ± 0.017	0.998 ± 0.024	0.986 ± 0.019	0.988 ± 0.041	0.9895 ± 0.0053	0.992 ± 0.025
RARS2 (UniProt Q5T160)	0.964 ± 0.039	0.92 ± 0.061	0.963 ± 0.021	0.972 ± 0.013	0.967 ± 0.031	0.959 ± 0.048
MLF2 (UniProt Q15773)	0.941 ± 0.025	0.931 ± 0.033	0.895 ± 0.018	0.9 ± 0.018	0.882 ± 0.032	0.853 ± 0.038
UniProt Q4J6C6 and related entries	0.994 ± 0.033	0.959 ± 0.045	0.996 ± 0.033	0.974 ± 0.017	0.983 ± 0.021	0.959 ± 0.016
RIF1 (UniProt Q5UIP0)	1.02 ± 0.022	1.06 ± 0.058	1.04 ± 0.034	1.05 ± 0.063	1.03 ± 0.084	1.08 ± 0.094

Target	NP40-soluble protein abundance (concentration: 1mM)	NP40-soluble protein abundance (concentration: 2mM)	NP40-soluble protein abundance (concentration: 4mM)	NP40-soluble protein abundance (concentration: 6mM)	NP40-soluble protein abundance (concentration: 8mM)	NP40-soluble protein abundance (concentration: 10mM)
NT5DC1 (UniProt Q5TFE4)	0.994 ± 0.048	0.948 ± 0.083	1.02 ± 0.031	0.984 ± 0.042	1.02 ± 0.025	0.975 ± 0.016
QRICH1 (UniProt Q2TAL8)	1.01 ± 0.016	1.01 ± 0.012	0.996 ± 0.036	0.99 ± 0.01	0.972 ± 0.019	0.994 ± 0.028
UniProt Q5JTV8 and related entries	0.964 ± 0.013	1.02 ± 0.044	0.9623 ± 0.0028	0.9942 ± 0.0063	0.973 ± 0.013	0.983 ± 0.031
UniProt Q58WW2 and related entries	0.996 ± 0.017	1.02 ± 0.064	0.998 ± 0.04	0.9925 ± 0.0036	0.9942 ± 0.0042	0.962 ± 0.032
UniProt Q15750 and related entries	1.03 ± 0.023	1 ± 0.017	1.03 ± 0.063	1.01 ± 0.059	1.01 ± 0.055	1.01 ± 0.052
CTC1 (UniProt Q2NKJ3)	0.987 ± 0.0099	0.982 ± 0.02	0.9805 ± 0.0092	0.971 ± 0.035	0.9712 ± 0.0047	0.957 ± 0.029
ZNF800 (UniProt Q2TB10)	1.03 ± 0.017	1.044 ± 0.01	1.03 ± 0.019	1.07 ± 0.032	1.08 ± 0.03	1.1 ± 0.059
UniProt Q2KHT3 and related entries	0.915 ± 0.035	0.878 ± 0.035	0.842 ± 0.062	0.89 ± 0.1	0.812 ± 0.079	0.816 ± 0.11
ATP6AP1 (UniProt Q15904)	0.958 ± 0.041	0.954 ± 0.03	0.966 ± 0.049	0.977 ± 0.043	0.983 ± 0.011	0.982 ± 0.026
UniProt Q15435 and related entries	0.985 ± 0.05	0.98 ± 0.039	0.968 ± 0.035	1.01 ± 0.038	1 ± 0.017	0.976 ± 0.042
UniProt Q16576 and related entries	0.9259 ± 0.0056	0.918 ± 0.05	0.927 ± 0.051	0.909 ± 0.054	0.91 ± 0.034	0.873 ± 0.03
UniProt Q53F19	0.99 ± 0.012	0.992 ± 0.026	0.982 ± 0.029	1 ± 0.035	1.02 ± 0.013	1.06 ± 0.058
UniProt Q16875 and related entries	0.962 ± 0.026	0.973 ± 0.048	1.01 ± 0.03	1.01 ± 0.038	1.04 ± 0.07	0.983 ± 0.038
Q5T063 and related entries (UniProt Q9NZJ6)	0.9959 ± 0.0042	1.01 ± 0.035	0.967 ± 0.018	1 ± 0.022	0.979 ± 0.032	1 ± 0.059
UBE2V2 (UniProt Q15819)	0.9835 ± 0.008	1.01 ± 0.038	0.994 ± 0.023	1.01 ± 0.059	1.01 ± 0.031	0.988 ± 0.032
PUS10 (UniProt Q3MIT2)	0.986 ± 0.05	0.954 ± 0.052	0.972 ± 0.035	0.975 ± 0.029	0.985 ± 0.053	0.965 ± 0.025
NONO (UniProt Q15233)	1.09 ± 0.048	1.17 ± 0.064	1.22 ± 0.056	1.39 ± 0.12	1.45 ± 0.15	1.56 ± 0.18
Q5TBH9 and related entries (UniProt Q8NDD1)	1.03 ± 0.072	1.11 ± 0.091	1.11 ± 0.09	1.15 ± 0.097	1.19 ± 0.084	1.21 ± 0.1
UniProt Q16401 and related entries	0.977 ± 0.026	0.93 ± 0.058	0.975 ± 0.013	0.955 ± 0.026	0.992 ± 0.024	0.96 ± 0.019
UniProt Q3MHD2 and related entries	1.15 ± 0.062	1.21 ± 0.072	1.1 ± 0.07	1.08 ± 0.12	1.05 ± 0.048	1.12 ± 0.054

Two entries from above, reformatted.
UniProt Q15669
  NP40-soluble protein abundance (concentration: 1mM): 1.02 ± 0.0095; NP40-soluble protein abundance (concentration: 2mM): 0.976 ± 0.068; NP40-soluble protein abundance (concentration: 4mM): 0.983 ± 0.01; NP40-soluble protein abundance (concentration: 6mM): 0.962 ± 0.02; NP40-soluble protein abundance (concentration: 8mM): 0.959 ± 0.018; NP40-soluble protein abundance (concentration: 10mM): 0.951 ± 0.014
UniProt Q5HYK3 and related entries
  NP40-soluble protein abundance (concentration: 1mM): 0.968 ± 0.052; NP40-soluble protein abundance (concentration: 2mM): 0.964 ± 0.041; NP40-soluble protein abundance (concentration: 4mM): 0.983 ± 0.085; NP40-soluble protein abundance (concentration: 6mM): 0.96 ± 0.058; NP40-soluble protein abundance (concentration: 8mM): 0.97 ± 0.038; NP40-soluble protein abundance (concentration: 10mM): 0.971 ± 0.069

— the supplement of paper PMC6411743
